Test results from patent US5273992A, “Method for reducing sickle erythrocyte dehydration and delaying the occurrence of erythrocyte sickling in-situ” (Beth Israel Hospital Assoc. Inc., priority 1992, dated 1993).
“Also recorded” adds a separate entry of the source.

Tests used:
[1] = target: T1, Ca^2+-activated K+ channel (Gardos channel) of sickle erythrocytes (Homo sapiens, UniProt O15554); experiment: Ca^2+-activated ^86Rb influx in sickle (SS) erythrocytes; type: cell-based
T1 construct: Blood was collected after obtaining informed consent from patients; endogenous in cells; host or cells: erythrocytes (SS) from patients homozygous for Hb S
Procedure: Patients homozygous for Hb S disease were selected. Blood was collected after obtaining informed consent from patients followed in the Hematology Division Clinic at Brigham and Women's Hospital and in the Boston Comprehensive Sickle Cell Center at Boston City Hospital. None of the patients had been transfused in the preceding 120 days.
Other experiments were carried out in normal saline (140 mM NaCl, 2 mM KCl, 10 mM tris-HCl, pH 8.0). At the end of the incubation, triplicate samples of each cell suspension were spun at 3,000 g for 10 min. The supernatant was then removed and a smaller volume of medium containing A23187 (60 μM CaCl2, and ^86 Rb was added to achieve a final Hct of 4-5%. Aliquots of cell suspension were taken at specified times (1, 3, and 5 min) and spun through 0.8 ml of medium with 5 mM EGTA and a 0.4 ml cushion of butyl-phthalate. The resultant supernatant and the upper layer of oil were carefully removed, the tube contents frozen at -80° C. and the tube tip containing the cell pellet cut off and counted.

[2] = system: Gardos pathway in normal AA cells; details: read-out: IC50 obtained with a different method in normal AA cells; cited from earlier work

Row | SMILES | Sequence / rank of inhibitory potency on the Gardos pathway [1] | IC50 [2]
1 | Clc1ccc(COC(Cn2ccnc2)c2ccc(Cl)cc2Cl)c(Cl)c1 (stereo not shown) [Miconazole] | second most potent inhibitor; also recorded: clotrimazole>miconazole>econazole>metronidazole | 1500 nM
2 | Clc1ccc(COC(Cn2ccnc2)c2ccc(Cl)cc2Cl)cc1 (stereo not shown) [Econazole, 1-[2-[(4-chlorophenyl)methoxyl]-2-(2,14-dichlorophenyl)ethyl]-1H-imidacole] | clotrimazole>miconazole>econazole>metronidazole | 1800 nM
